PubChem BioAssay AID652243 | Drosophila RNAi Screening Center, 2013
The screen tested about 24,000 reagents; this is an unselected part of those with a known target gene and a result. In the full data, 246 (1%) are marked active. 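Plates not normalised; calls are printed but the firefly/Renilla ratio behind them is not deposited; fold cut for lowering reported inconsistently.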 Raw values vary from plate to plate and are shown uncorrected. Unmarked entries are inactive. Not given: the amount of reagent.

- Assay: 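Fly regulators of androgen-dependent reporter output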 (primary screen)
- Cell system: Drosophila S2R+ cells
- Knock-down reagent: long dsRNA against Drosophila genes
- Time to read-out: 72 h (48 h, then 24 h hormone)
- Conditions: synthetic androgen R1881 at 10 nM for 24 h
- Detection: 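Per-well raw luminescence of the androgen-driven firefly reporter and of the Renilla control, two replicates each, without normalisation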
- Scale: firefly reporter light: higher = more light from androgen-responsive reporter; Renilla control light: higher = more constitutive control signal (cell number, transfection)
- Hit rule: 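Hit when the log firefly-to-Renilla ratio dropped or increased by a fixed fold versus the mean of GFP or LacZ controls across duplicate plates; lowering cut given as 1.5 and as 3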
- Calls: active = hit: reporter lowered or raised; inactive = no hit

How did the screen score CG18747 [SID104195176]?
firefly reporter light, replicate 1: 1.05e5; firefly reporter light, replicate 2: 1.09e5; Renilla control light, replicate 1: 2.52e6; Renilla control light, replicate 2: 1.95e6

For CG18747 [SID104204749], what was measured?
firefly reporter light, replicate 1: 2.80e5; firefly reporter light, replicate 2: 2.78e5; Renilla control light, replicate 1: 4.78e5; Renilla control light, replicate 2: 4.74e5

With CG12448 [SID104181759], how do the results read?
firefly reporter light, replicate 1: 1.41e5; firefly reporter light, replicate 2: 99260; Renilla control light, replicate 1: 1.18e6; Renilla control light, replicate 2: 1.11e6

For PK2-R1 [SID104196239], what was measured?
firefly reporter light, replicate 1: 6760; firefly reporter light, replicate 2: 31319; Renilla control light, replicate 1: 2.39e5; Renilla control light, replicate 2: 2.98e5

With PK2-R1 [SID104203154], what was measured?
firefly reporter light, replicate 1: 1.08e6; firefly reporter light, replicate 2: 1.35e6; Renilla control light, replicate 1: 1.21e6; Renilla control light, replicate 2: 1.33e6

For CG13590 [SID104184018], what does the deposit list?
firefly reporter light, replicate 1: 4.29e5; firefly reporter light, replicate 2: 8.95e5; Renilla control light, replicate 1: 1.28e6; Renilla control light, replicate 2: 2.07e6

What did the screen give for CG13590 [SID104208334]?
firefly reporter light, replicate 1: 5.76e5; firefly reporter light, replicate 2: 2.83e5; Renilla control light, replicate 1: 1.83e6; Renilla control light, replicate 2: 1.42e6

With CG5704 [SID104188364], what does the deposit list?
firefly reporter light, replicate 1: 8.26e5; firefly reporter light, replicate 2: 8.34e5; Renilla control light, replicate 1: 2.12e6; Renilla control light, replicate 2: 2.08e6

What is on record for dbr [SID104180066]?
firefly reporter light, replicate 1: 1.40e6; firefly reporter light, replicate 2: 1.23e6; Renilla control light, replicate 1: 4.08e6; Renilla control light, replicate 2: 1.76e6

What did the screen give for Cul3 [SID104183329]?
firefly reporter light, replicate 1: 8.34e5; firefly reporter light, replicate 2: 2.96e5; Renilla control light, replicate 1: 1.45e6; Renilla control light, replicate 2: 1.03e6

With Cul3 [SID104201245], how do the results read?
firefly reporter light, replicate 1: 6.21e5; firefly reporter light, replicate 2: 4.86e5; Renilla control light, replicate 1: 1.73e6; Renilla control light, replicate 2: 1.64e6

How did the screen score Cul3 [SID104204743]?
firefly reporter light, replicate 1: 4.68e5; firefly reporter light, replicate 2: 3.14e5; Renilla control light, replicate 1: 9.39e5; Renilla control light, replicate 2: 5.70e5

Which result is listed for Cul3 [SID104206429]?
firefly reporter light, replicate 1: 5.72e5; firefly reporter light, replicate 2: 3.83e5; Renilla control light, replicate 1: 2.17e6; Renilla control light, replicate 2: 1.25e6

A stretch from the list above:
PK2-R1 [SID104196239] | firefly reporter light, replicate 1: 6760; firefly reporter light, replicate 2: 31319; Renilla control light, replicate 1: 2.39e5; Renilla control light, replicate 2: 2.98e5
PK2-R1 [SID104203154] | firefly reporter light, replicate 1: 1.08e6; firefly reporter light, replicate 2: 1.35e6; Renilla control light, replicate 1: 1.21e6; Renilla control light, replicate 2: 1.33e6
